# Results reported in PubChem BioAssay AID1347426 (Functional Genomics Laboratory (NCATS/FGL), 2020).
# The campaign covered roughly 31,000 sequences. About 1,400 (4.5%) were called active.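 Rule for the calls: active = median seed-adjusted z-score above 1 or below -1; inactive = the rest.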 The list shows a part of the results.
# Experiment: Novel Modifiers of Survival Motor Neuron (SMN) Protein: Gene Identification via Genome-wide siRNA Screen;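 note: luminescence tracks full-length SMN protein made from the SMN2 reporter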
# Conditions: HEK293T SMN2-luciferase reporter, siRNA knockdown, 72 h; actives lie on both sides
# Procedure, shortened: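 Steps: spot 1 pmol siRNA, add Lipofectamine RNAiMax in serum-free DMEM, seed HEK293T SMN2–luciferase reporter cells; incubate 72 h at 37 °C; add ONE-Glo; normalize luminescence to control siRNA, log10, MAD. Candidates: |MAD| > 1.0.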
row,Sequence,median seed-adjusted z-score
1,CAAUGGACUAUAGAGUUAATT against GLRB,inactive: 0.0713
2,GGCCUAGGCUUCAACAUCATT against LIN7B,inactive: 0.236
3,GGAUUUUGUCAGUCUAGAATT against OSR2,inactive: 0.603
4,GGACUACAGUGAACAUUGUTT against PSMD14,inactive: 0.375
5,CCAGUUCAAUGAGACCUUUTT against COX4I2,inactive: -0.0202
6,AGUGUUUGCUUGCGACUUATT against B3GALT6,inactive: 0.169
7,CCUACAAUGCGGACAUCGATT against LOXL1,inactive: 0.0435
8,CAUCCUCUUUAACCCAGUUTT against RANBP3,inactive: -0.211
9,CCAUCAACGUGAACCAUUATT against NINJ1,inactive: -0.061
10,GGAAGAACCGCUACAAAGATT against PTPN18,inactive: -0.206
11,GCAUAUCAUGGAGCAUCUATT against MCFD2,inactive: -0.0111
12,AAACCUACUGGACCCGUGATT against CRABP1,inactive: -0.625
13,CAAGCAAUACAAGUACUAATT against MEIS2,inactive: 0.475
14,CGCUGAAUCCUUCAAGGAATT against OPHN1,inactive: 0.692
15,AAGACAGAAUUGUGGUUUUTT against TFF1,inactive: -0.469
16,UCCUUACCGUGGGCACUGATT against HMOX1,inactive: 0.45
17,AGCUGCUUCUGUUCAAUAATT against AMIGO3,inactive: 0.752
18,CAGUGGAUCUCAACAAGAUTT against KRT36,inactive: 0.766
19,CAAUCCGAACAACAACGUATT against RFX3,inactive: 0.17
20,GGAAGAACCUAUAGCCUAUTT against PTPRO,inactive: 0.387
21,GUCCUUCCGUAAAAAGUAUTT against PEBP1,inactive: 0.641
22,CCAACUAUGUGGUAGCCUUTT against SLC22A4,inactive: -0.474

row,Sequence,median seed-adjusted z-score
1,CCAACAACAUUACGAAAUUTT against SLC22A3,inactive: 0.126
2,GACCUUCAGUUGGAGCUGATT against ID1,inactive: 0
3,GAUGUUCAGUAUAUCUAUATT against TIMP4,inactive: -0.112
4,GACCUAUCCUUGCACCAGATT against ECT2,inactive: 0.04
5,UGGGAAUUUUGAUUACAUUTT against MS4A5,inactive: 0.226
6,GGCUCGCAGUAUGAACUGATT against IRX1,inactive: 0.673
7,GGGUCUUCCCUCAAAGUAATT against SIRT1,inactive: 0
8,CCACAGACCCAACCAGUUATT against OAT,inactive: -0.0231
9,CAGAAGUUCUCAGACCUAATT against ZNF721,inactive: 0.404
10,GGAUAAACCUAUGCAUACATT against CCNF,inactive: -0.435
11,CAUAAGGAGAGAGAUCUUATT against THRAP3,inactive: -0.852
12,CAAUCGACCCUCCAAGAUATT against DDX19A,inactive: 0.183
13,GAGAACAUGUUGUUCCGCUTT against SSPO,inactive: 0.397
14,GGCUAACUCGAUUUAAGCATT against TIGD2,inactive: -0.13
15,GAUUCUGAUUCGCAACCGATT against NOTCH2,inactive: 0.000598
16,GAACAGCCCUUUAAAUUCATT against ETV1,inactive: 0.167
17,GGAUGACAUCUUAAACUUATT against IKBKB,inactive: 0.0896
18,CGUCAGACUUUUAAAUCCATT against UPP1,inactive: -0.135
19,CAACCAGUUGACUACCAUGTT against FOXB1,inactive: 0.223
20,AGAACAUCGACUUCAGCAATT against SOX8,inactive: 0.186
21,GAGAAACCUUUAUUCGAUATT against GLULD1,inactive: -0.332
22,GGUUGUCCUUGAGUAAUAATT against IRAK1,inactive: -0.232

# Individual results from the list.
# median seed-adjusted z-score with GGGUCUUCCCUCAAAGUAATT against SIRT1 reads inactive: 0
# median seed-adjusted z-score with GGCUCGCAGUAUGAACUGATT against IRX1 reads inactive: 0.673
# median seed-adjusted z-score with GACCUAUCCUUGCACCAGATT against ECT2 reads inactive: 0.04
# median seed-adjusted z-score with CAACCAGUUGACUACCAUGTT against FOXB1 reads inactive: 0.223

# (list continues)

row,Sequence,median seed-adjusted z-score
1,GCCUUGUACAAGAACCCAATT against PYGM,inactive: -0.0689
2,AGGCCUCACGUUUUCCAUATT against PMM2,inactive: 0.448
3,GCAUGACCGCUUAUCCCAATT against SLC6A5,inactive: -0.204
4,CAAGCUCUUUGGUCAAGAATT against SNX4,inactive: -0.144
5,GGUAUUUCCUCGCAACAGATT against METT10D,inactive: 0.455
6,GGAAGUGCCUUAUGCCUAUTT against CHIA,inactive: 0.479
7,CACUUUGUCCUAAAGAUUUTT against GTDC1,inactive: 0.2
8,GCAUGAGUGCUAUCAGAUATT against PIPOX,active: 1.06
9,GGCCUACACUUUCAGUGAATT against FCRLA,inactive: 0.03
10,GGAGUUACAAGUUAUUUCATT against IL15,inactive: -0.139
11,CAUUAACAACCAAAGGAAATT against FDX1,inactive: -0.0549
12,GCUGUUGACUCACAAUGAUTT against GCLM,inactive: 0.0509
13,CCUCAGUUCGAAUCUGGUATT against PPEF1,inactive: -0.58
14,CAUACGACAUUGACAUUCATT against PCDHB1,inactive: 0.342
15,GGCUUAGCGUAAGCAGUGATT against MKX,inactive: 0.00623
16,GGCUGAGAUCGUUUUCAAATT against MRPS17,inactive: -0.313
17,GGAGCUACUGAGAACAUAATT against HOXD4,inactive: 0.566
18,GGAUGUUGAUGGAUCAGGUTT against DHX32,inactive: -0.12
19,GGAAGGACGAUGUUAUUAATT against RLN1,inactive: 0.0637
20,CAACCACUAUGUUCUGUAUTT against PSMD3,inactive: 0.47
21,GAUUCGAAAUGGUGAGAAATT against ATP1A1,inactive: 0.271
22,CCAAAGAACUUAAGGAUUUTT against NEURL2,active: 1.39

row,Sequence,median seed-adjusted z-score
1,GGUCUGACAUCUUCGAAUATT against ODZ2,inactive: -0.0233
2,CAACCAGCACAAUUCUGAATT against NFIX,inactive: 0.481
3,GUACUUCAGUGGAGUGAAATT against CDKL1,inactive: -0.28
4,AGGAAUAUGUGGUGGAAAATT against CBX1,inactive: 0
5,AGCUGGGAUUCAUCCUAAATT against PVALB,inactive: 0.11
6,GCAUUACAGCCCAUCAUGATT against SATB2,inactive: -0.389
7,CAAUGUUUACUACAAUGAATT against TUBB2B,inactive: 0.935
8,GGAAGUGAGUGAUCAAACATT against LPAR4,inactive: -0.321
9,CCAGUACUGAGGAACGCAATT against MED12,inactive: -0.896
10,CAACUGUUCCUGUAUUGAATT against SLCO4C1,inactive: -0.116
11,UCACAGACGAGGCAUUUAATT against FTCD,inactive: -0.27
12,GCCUUUGGUUCGCAAGUUUTT against DYRK2,inactive: 0
13,AGACGAAUUUGGGUUUGAATT against NDUFAB1,inactive: -0.282
14,GCCUCUCACCUGAAUACAATT against GJB1,inactive: 0.152
15,GAAUGUCUGUGAGCAAGCATT against KPNA4,inactive: 0.457
16,CAUUAACAUUGUUCGCAAATT against ACO2,active: -1.57
17,CCAGAUAAGUUUAAGUAUATT against EIF2B1,inactive: 0.206
18,GGGAGUAUGCAGACAGUUUTT against PCYT2,inactive: 0.217
19,CUCAGUUGCUUAUAAAAAUTT against YWHAZ,inactive: 0.721
20,GGUGUAAUAAUGUCCUUUATT against SNRPF,active: -2.66
21,GGAACAUCGAGGACAUCUATT against ARHGEF4,inactive: 0.332
22,GGCAUGAAAUAAGGACUAATT against PARL,inactive: -0.0659

row,Sequence,median seed-adjusted z-score
1,GGUGGACUCUGUUGCUAAATT against MAP2K6,inactive: -0.889
2,AGCUCCAUCUCGACCACAATT against FMOD,active: -1.32
3,AGCCUUUCACGGUCAUUCATT against PRIC285,inactive: 0
4,UGCGUGGAAGCUACACUUATT against ST3GAL3,inactive: -0.133
5,ACUGAAAGCUGAUUAAUUATT against KLK2,inactive: 0.0716
6,CCUCUGAACUCCUACAUGATT against BMP7,inactive: -0.893
7,GGUUUACUUAUGUCCAGAATT against E2F3,inactive: -0.215
8,GGAAAUUGUGGAUUCGGUATT against PGM1,inactive: 0.136
9,GCACAUAAGGAGGCGAUUATT against WDR33,active: 3.27
10,GGAUUUUGGAAAUCGGCUATT against MAN1B1,inactive: -0.88
11,UGUCUAUCUUCAUCACCAATT against SCN1B,inactive: 0.331
12,CAAAGUCUCAAGCUUUGUATT against GZMB,inactive: -0.0378
13,GGGAAAGUCUUCAAAUACATT against ZNF485,inactive: 0.445
14,GCCGAGUCCUUUUCCUAGATT against IKZF2,inactive: 0.514
15,UCUUCUACCUAAUCCGCAATT against ADORA1,inactive: 0.022
16,GCAAUACACGUUUCCUUGATT against KRTAP2-2,inactive: -0.212
17,GGUGGAAACUGGGACAAUATT against RPS6KA6,inactive: -0.0821
18,GGCGAGCUCUUUUUCUUCATT against MMP11,inactive: -0.354
19,GAAAUCUUCUUACGAAAAATT against XPO7,inactive: 0.546
20,CGAAAUCUUUUUGAACGAUTT against SUCLG1,inactive: -0.63
